From publication PMC7229167, “Atypical chemokine receptor ACKR2-V41A has decreased CCL2 binding, scavenging, and activation, supporting sustained inflammation and increased Alzheimer’s disease risk” (Scientific Reports, 2020)
Changes are numbered by the printed parent chain. No constants are given. Whether binding was seen depends on the method and setting.

Amino acid sequences for entries named in this document (tags omitted). Residues count along the entry.
UniProt Q99731, residues 22-98: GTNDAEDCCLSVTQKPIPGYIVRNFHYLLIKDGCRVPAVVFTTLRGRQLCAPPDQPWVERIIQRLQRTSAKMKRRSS

Key:
[1] = biological target: T1, Atypical chemokine receptor 2 variant V41A (ACKR2-V41A; rs2228467) (human) (UniProt O00590); experiment: flow cytometry on cells; direct binding: AF647-conjugated chemokine incubated with transfected CHO-k1 cells at 37 °C for 45 minutes, two washes, BD Accuri; percent of chemokine-positive cells normalised to percent of ACKR2-positive cells; titration with non-linear analysis for Kd; only the binder purified
T1 sequence: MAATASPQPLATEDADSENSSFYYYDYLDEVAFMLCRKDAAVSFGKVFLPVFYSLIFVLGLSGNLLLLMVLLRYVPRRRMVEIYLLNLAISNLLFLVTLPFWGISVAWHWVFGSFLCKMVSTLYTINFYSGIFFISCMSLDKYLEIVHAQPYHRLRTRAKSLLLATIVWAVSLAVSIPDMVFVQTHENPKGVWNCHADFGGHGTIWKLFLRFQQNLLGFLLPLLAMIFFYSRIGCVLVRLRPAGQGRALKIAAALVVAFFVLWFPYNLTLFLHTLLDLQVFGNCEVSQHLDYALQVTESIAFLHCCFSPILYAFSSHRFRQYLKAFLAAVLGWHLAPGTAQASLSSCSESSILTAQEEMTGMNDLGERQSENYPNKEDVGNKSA

[2] = biological target: T2, Atypical chemokine receptor 2, wild type (ACKR2-WT) (human) (UniProt O00590); experiment: as above
T2 sequence: T1 sequence with A41V

binding [1]: no binding
binding [2]: no binding
Substance: AF647-conjugated chemokine ligand 19 (CCL19-AF647) (from UniProt Q99731 22-98)
